Values quoted from earlier work as cited in US20100130597A1, “DNA-PKCS MODULATES ENERGY REGULATION AND BRAIN FUNCTION” (The United State of America, as represented by the …, priority 2007, published 2010).
Some results were stated once for a whole list of compounds, not compound by compound. For at least one compound, name, drawing or mass did not settle the structure.

By UniProt entry, the sequences of proteins in these tests, tags left out.
UniProt P78527, whole entry: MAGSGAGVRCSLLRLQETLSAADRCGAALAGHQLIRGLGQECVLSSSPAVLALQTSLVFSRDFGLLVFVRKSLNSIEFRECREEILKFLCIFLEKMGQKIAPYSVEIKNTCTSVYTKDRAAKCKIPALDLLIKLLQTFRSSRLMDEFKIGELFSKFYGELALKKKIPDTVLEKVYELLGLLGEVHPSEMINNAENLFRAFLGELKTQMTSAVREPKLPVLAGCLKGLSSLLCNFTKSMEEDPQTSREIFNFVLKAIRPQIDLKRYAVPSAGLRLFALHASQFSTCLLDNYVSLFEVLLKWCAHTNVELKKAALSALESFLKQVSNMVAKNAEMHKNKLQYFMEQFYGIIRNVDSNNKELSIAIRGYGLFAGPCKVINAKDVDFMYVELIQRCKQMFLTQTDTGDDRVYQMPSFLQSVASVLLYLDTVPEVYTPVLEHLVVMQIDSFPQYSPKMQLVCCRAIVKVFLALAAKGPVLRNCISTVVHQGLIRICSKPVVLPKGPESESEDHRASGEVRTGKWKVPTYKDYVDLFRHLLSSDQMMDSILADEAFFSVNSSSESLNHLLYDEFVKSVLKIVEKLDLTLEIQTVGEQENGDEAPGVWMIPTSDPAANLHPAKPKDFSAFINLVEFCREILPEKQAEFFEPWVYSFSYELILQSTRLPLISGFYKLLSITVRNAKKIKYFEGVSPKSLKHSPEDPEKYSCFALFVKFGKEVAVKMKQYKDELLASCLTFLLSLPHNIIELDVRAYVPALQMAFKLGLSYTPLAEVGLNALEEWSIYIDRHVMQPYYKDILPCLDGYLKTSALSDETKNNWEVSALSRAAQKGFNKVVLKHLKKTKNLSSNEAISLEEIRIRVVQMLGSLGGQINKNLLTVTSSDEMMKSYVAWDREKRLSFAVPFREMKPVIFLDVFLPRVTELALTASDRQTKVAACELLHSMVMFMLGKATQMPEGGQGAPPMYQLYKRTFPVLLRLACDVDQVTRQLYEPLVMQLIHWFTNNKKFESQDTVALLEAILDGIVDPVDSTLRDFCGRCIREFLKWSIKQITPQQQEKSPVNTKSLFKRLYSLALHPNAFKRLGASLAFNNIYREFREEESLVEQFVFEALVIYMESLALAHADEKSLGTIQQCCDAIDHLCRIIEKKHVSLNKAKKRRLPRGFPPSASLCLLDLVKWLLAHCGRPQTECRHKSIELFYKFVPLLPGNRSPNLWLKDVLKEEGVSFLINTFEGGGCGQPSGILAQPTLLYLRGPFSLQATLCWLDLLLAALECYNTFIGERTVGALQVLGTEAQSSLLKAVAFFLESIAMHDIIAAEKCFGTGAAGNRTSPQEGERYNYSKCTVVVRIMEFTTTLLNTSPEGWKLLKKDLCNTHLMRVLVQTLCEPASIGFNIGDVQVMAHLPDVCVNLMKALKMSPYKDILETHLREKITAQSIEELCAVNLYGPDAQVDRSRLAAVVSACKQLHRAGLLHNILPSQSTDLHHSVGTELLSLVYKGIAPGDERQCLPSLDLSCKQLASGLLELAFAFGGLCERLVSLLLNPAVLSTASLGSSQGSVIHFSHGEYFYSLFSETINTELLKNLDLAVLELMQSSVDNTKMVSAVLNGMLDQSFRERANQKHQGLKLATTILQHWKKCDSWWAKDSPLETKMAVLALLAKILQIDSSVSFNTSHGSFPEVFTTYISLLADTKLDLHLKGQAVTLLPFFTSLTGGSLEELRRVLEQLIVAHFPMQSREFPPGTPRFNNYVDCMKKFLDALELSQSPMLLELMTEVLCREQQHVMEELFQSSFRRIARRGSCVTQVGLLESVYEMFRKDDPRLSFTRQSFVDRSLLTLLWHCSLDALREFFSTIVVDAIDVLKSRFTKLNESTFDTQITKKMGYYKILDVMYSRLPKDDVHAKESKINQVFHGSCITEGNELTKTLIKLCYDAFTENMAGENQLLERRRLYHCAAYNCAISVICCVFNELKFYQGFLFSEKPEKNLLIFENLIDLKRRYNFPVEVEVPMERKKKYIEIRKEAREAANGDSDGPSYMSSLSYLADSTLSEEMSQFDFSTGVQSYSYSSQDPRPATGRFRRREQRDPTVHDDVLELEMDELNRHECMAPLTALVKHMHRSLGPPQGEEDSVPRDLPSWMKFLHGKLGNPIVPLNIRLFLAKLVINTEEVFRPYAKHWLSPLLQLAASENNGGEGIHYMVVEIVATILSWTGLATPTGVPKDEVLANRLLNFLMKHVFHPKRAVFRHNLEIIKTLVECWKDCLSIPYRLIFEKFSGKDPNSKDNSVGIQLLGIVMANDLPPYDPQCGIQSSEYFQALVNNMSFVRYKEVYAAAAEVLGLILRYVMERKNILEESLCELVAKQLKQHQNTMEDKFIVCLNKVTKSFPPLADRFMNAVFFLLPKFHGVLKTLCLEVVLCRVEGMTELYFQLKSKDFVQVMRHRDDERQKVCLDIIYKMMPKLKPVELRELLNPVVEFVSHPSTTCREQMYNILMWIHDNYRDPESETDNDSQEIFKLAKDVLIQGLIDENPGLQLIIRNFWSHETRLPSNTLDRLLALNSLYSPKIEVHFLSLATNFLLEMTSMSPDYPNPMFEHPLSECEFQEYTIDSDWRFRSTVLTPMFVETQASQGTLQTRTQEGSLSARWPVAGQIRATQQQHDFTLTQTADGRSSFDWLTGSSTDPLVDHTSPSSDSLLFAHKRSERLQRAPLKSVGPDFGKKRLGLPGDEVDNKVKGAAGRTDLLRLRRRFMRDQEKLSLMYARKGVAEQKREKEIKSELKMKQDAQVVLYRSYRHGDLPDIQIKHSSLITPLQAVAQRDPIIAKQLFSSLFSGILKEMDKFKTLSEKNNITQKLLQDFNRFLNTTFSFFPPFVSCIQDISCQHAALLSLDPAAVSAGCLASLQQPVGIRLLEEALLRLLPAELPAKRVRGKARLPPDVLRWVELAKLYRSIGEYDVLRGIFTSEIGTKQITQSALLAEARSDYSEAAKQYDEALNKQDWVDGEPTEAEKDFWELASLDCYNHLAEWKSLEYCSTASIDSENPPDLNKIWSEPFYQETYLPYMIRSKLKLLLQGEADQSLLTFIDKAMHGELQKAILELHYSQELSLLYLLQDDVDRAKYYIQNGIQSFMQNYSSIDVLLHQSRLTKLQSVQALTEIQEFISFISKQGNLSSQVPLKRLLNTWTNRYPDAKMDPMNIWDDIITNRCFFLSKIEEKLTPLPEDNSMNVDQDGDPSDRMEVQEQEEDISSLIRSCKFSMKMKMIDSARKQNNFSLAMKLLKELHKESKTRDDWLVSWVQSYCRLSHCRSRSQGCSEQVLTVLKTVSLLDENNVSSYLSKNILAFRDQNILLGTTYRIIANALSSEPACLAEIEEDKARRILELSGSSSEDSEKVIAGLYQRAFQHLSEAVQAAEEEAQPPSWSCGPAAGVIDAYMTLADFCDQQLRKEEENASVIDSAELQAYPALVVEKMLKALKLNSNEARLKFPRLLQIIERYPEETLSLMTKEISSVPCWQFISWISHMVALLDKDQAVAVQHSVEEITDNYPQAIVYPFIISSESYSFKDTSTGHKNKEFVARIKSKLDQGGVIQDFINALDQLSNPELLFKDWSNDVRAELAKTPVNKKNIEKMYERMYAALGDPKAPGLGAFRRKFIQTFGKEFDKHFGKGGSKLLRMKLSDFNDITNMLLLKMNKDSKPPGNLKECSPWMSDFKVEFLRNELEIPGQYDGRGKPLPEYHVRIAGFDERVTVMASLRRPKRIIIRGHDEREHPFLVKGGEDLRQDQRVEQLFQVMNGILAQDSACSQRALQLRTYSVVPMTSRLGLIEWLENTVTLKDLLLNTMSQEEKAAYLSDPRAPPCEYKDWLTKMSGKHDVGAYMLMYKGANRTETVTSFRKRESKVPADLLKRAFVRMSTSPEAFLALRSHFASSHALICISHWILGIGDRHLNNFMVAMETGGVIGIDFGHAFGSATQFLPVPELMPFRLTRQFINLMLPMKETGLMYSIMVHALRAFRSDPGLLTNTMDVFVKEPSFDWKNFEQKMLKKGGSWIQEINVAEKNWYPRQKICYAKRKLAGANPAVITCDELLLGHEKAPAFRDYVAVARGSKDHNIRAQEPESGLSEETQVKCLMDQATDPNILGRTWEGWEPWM

Target: DNA-PK (Homo sapiens, UniProt P78527)
Conditions: Smith et al., US 2007/0238731 A1; read-out: IC50 for DNA-PKcs; cited from earlier work

In the case of `CCN1CCN(CC(=O)Nc2ccc(-c3cccc4c(=O)cc(N5CCOCC5)oc34)c3sc4ccccc4c23)CC1` [compound 26], the IC50 is given as less than 10 nM.
